Source: paper PMC3960220, “1,2-β-Oligoglucan Phosphorylase from Listeria innocua” (PLoS ONE, 2014)
Results are given in words; binding and its absence hold for the method and conditions named. Where a sequence is shown, tags or fusion partners need not be part of it.

Biological target: recombinant Lin1839 protein (1,2-β-oligoglucan phosphorylase) from Listeria innocua (Listeria innocua Clip 11262) (UniProt Q92AT0)
Assay: SEC; Superdex 200 (Hiload 16/60), 50 mM MOPS-NaOH (pH 7.0) containing 150 mM NaCl; 1 ml of 2.0 mg/ml Lin1839r loaded; calibrated with standard proteins (44-669 kDa); both purified

B1: recombinant Lin1839 protein (1,2-β-oligoglucan phosphorylase) from Listeria innocua (enzyme, UniProt Q92AT0 1-1086)
chain: MTMLKEIKKADLSAAFYPSGELAWLKLKDIMLNQVIQNPLENRLSQIYVRAHVGDKIEIYPLLSRDAEVGFNENGVEYRGVVGPFRYSVQMHFHTRGWFYDVTVDGDLEFDLVYLQDLGLAEQAAVRTNEAYMSQYIDYHVTEGATGFTVQARQNQPQNERFPAVQIGALTKIVGYATDGFDIYGTNYKLTSELANLKEKSLPSRVYQYEFAQISLQTELFTNHGETIFYGYATENQPKASGAPFENLAELKSNISEQPYQPSTKAILNKHIGTPITGETISDSWLQENFPDRIQEEQQNGALLSFFTPNYAHVVMREKEAELERPHGSILLDKVDVLNPEATLSATTYMYGAFLSQLVAGNTNMNKWNSHARNPLNILQTSGLRIYIELDSELRLLGVPSVWETSTNYSTWYYQWNGDLITVQTTLTADSKEAFVTVHSEKGHSYKLVLTNQVTMGTNEYDTTVKKEIKDGIVTYFPAEDSPILETYPALQFRVDGTYNELTDERYFAKDYVGTAGLDVFVFEPSDKATFHVQAKLSDEFSKPTEDLEANNKVIRASYDELTAQFHLNHQSTTAEKLNLTVYWYAHQMLVHYASPHGLEQYSGAAWGTRDVSQGPFEFFLATGNKAVLRKLVLTIFSHQYQDTGDWPQWFMFDKYTSIQQEESHGDVIVWPLKIIGDYLEMSGDAGILEEAIPFVDRESKTFTKEQGTLLEHIELAVKTIEARFMKGTALSNYGDGDWDDTLQPANAQLKKNMVSSWTVALTYQTFKRLAAFLPVGEKYETLAKNVQADFAKYMTNDTDVIPGFLYLEEGKAPVWMIHPEDKETNIKYRLIPLTRSVISELVDKKQASRNFEIIGEHLLHPDGVRLMSEPAHYAGGVSTHFKRAEQAANFGREVGLQYVHAHIRYIEALAKIGDKSAWHMLDVINPINIKEVVPNAALRQSNTYFSSSDAAFLDRYQAQNEFGRVKEGSIPVKGGWRIYSSGPGIYLHQLISSVLGIRQTEDALIFDPILPEELDGLECHIELDNYPLDLTFESADEGSIVVNGEKQPVENGANLYRTGALILPKKNLTTKCSQITIKFQKNNRL
binding: no binding (tested: 2.0 mg/ml)
